Reference: PubChem BioAssay AID1259424 (University of Nebraska Medical Center, 2018)
Here is a random part of about 14,000 deposited reagents. 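Higher correlation or smaller distance means closer resemblance to KSR1 loss; control wells, including KSR1 knockdowns, recur on many plates.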 Not all columns of the deposit are shown. No sequences are given here. Not stated in the record: the time to read-out.

Screen: 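Rank knockdowns across the genome by resemblance to the KSR1 depletion profile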 (primary screen)
System: human HCT116 colon cancer cells
Knock-down reagent: siRNA pool against human genes, 50 nM
Measured: 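Log2 levels of six mRNAs (branched-DNA multiplex), adjusted by two reference genes and the non-targeting median, then scored against the average KSR1 knockdown pattern as Pearson r and euclidean distance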
Reading the numbers: mean correlation with KSR1 profile: higher = expression change more like KSR1 knockdown

TDRD1 (GeneID 56165) → mean correlation with KSR1 profile = 0.368
ARL1 (GeneID 400) → mean correlation with KSR1 profile = -0.741
GINS4 (GeneID 84296) → mean correlation with KSR1 profile = 0.592
ACY3 (GeneID 91703) → mean correlation with KSR1 profile = -0.587
PF4V1 (GeneID 5197) → mean correlation with KSR1 profile = -0.156
PHF8 (GeneID 23133) → mean correlation with KSR1 profile = -0.17
BASP1 (GeneID 10409) → mean correlation with KSR1 profile = -0.621
NFAT5 (GeneID 10725) → mean correlation with KSR1 profile = -0.205
WLS (GeneID 79971) → mean correlation with KSR1 profile = 0.316
VRK1 (GeneID 7443) → mean correlation with KSR1 profile = 0.721
MND1 (GeneID 84057) → mean correlation with KSR1 profile = 0.872
WRAP53 (GeneID 55135) → mean correlation with KSR1 profile = -0.347
ZNF292 (GeneID 23036) → mean correlation with KSR1 profile = -0.621
HMGA1 (GeneID 3159) → mean correlation with KSR1 profile = -0.097
ARSL (GeneID 415) → mean correlation with KSR1 profile = -0.222
ST8SIA5 (GeneID 29906) → mean correlation with KSR1 profile = 0.693
MFRP (GeneID 83552) → mean correlation with KSR1 profile = 0.67
DOC2A (GeneID 8448) → mean correlation with KSR1 profile = -0.177
DEF8 (GeneID 54849) → mean correlation with KSR1 profile = -0.349

A few values from the list.
WRAP53 (GeneID 55135), mean correlation with KSR1 profile = -0.347
For “mean correlation with KSR1 profile”, DOC2A (GeneID 8448) reads -0.177
